Drawing on publication PMC5542435, this text covers binding for one molecule.

No constants are given. Whether binding was seen depends on the method and setting. Some entries that bind do so weakly or less than the wild type. Where a sequence is shown, tags or fusion partners need not be part of it.

The assay concerns the target T1, FliP-3×FLAG (chromosomally encoded, expressed from the native fliP locus) (S. enterica serovar Typhimurium LT2) (UniProt P54700).
T1 sequence: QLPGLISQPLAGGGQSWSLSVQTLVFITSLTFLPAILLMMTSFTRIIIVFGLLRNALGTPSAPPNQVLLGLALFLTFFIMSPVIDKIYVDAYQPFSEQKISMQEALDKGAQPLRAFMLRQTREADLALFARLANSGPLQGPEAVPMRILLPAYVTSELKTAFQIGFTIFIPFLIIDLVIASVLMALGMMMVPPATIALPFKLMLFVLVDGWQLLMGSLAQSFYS
Description: native gel or EMSA; BN-PAGE (3%–12%) of crude membrane extracts solubilised in DDM, strain with chromosomal FliP-3×FLAG; FliP-containing complexes found by anti-FLAG Western blot, selected bands analysed by LC-MS/MS. On the technique in general: A gel shift assay detects complexes by their altered migration in electrophoresis.

B1: FliR (untagged, endogenous in S. Typhimurium) (protein, UniProt P54702 1-264)
chain: MIQVTSEQWLYWLHLYFWPLLRVLALISTAPILSERAIPKRVKLGLGIMITLVIAPSLPANDTPLFSIAALWLAMQQILIGIALGFTMQFAFAAVRTAGEFIGLQMGLSFATFVDPGSHLNMPVLARIMDMLAMLLFLTFNGHLWLISLLVDTFHTLPIGSNPVNSNAFMALARAGGLIFLNGLMLALPVITLLLTLNLALGLLNRMAPQLSIFVIGFPLTLTVGIMLMAALMPLIAPFCEHLFSEIFNLLADIVSEMPINNNP
On to B1, for which the binding entry is given as “binds”.
